# Measured values: the supplement of paper PMC8728848
# This is one part of the list.
# B1: pullulanase (Streptococcus pyogenes), Q8KLP1 (protein)
# chain: MKKKVNQGSKRYQYLLKKWGIGFVIAATGTVMLGCIPSILTHQVAAKTIVGLARDEAQQGDGNAKSGDGFQSSSKEAKPVLDSSSANPASIAEHHLRMHFKTLPAGESLGSLGLWVWGDVDQPSKDWPNGAITMTKAKKDDYGYYLDVPLAAKHRQQVSYLINNKAGENLSKDQHIPLLTPKMNEVWIDENYHAHAYRPLKKGYLRINYHNQSGHYDNLAVWTFKDVKTPTTDWPNGLDLSHKGPYGAYVDVPLKEGANEIGFLILDKSKTGDAIKVQPKDYLFKELDNHTQVFVKDTDPKVYNNPYYIDQVSLKGAEQTTPNEIKAIFTTLDGLDEDAVKQNIKITDKAGKTVAIDELTLDKDKSVMTLKGDFKAQGAVYTVTFGEVSQVARQSWQLKDKLYAYDGELGATLAKDGSVDLALWSPSADSVKVVVYDKQDQTKVVGQADLTKSDKGVWRAHLTSDSVKGISDYTGYYYLYEITRGQEKVMVLDPYAKSLAAWNDATATDDIKTAKAAFIDPSKLGPTGLDFAKINNFKKREDAIIYEAHVRDFTSDKALEGKLTHPFGTFSAFVEQLDYLKDLGVTHVQLLPVLSYFYANELDKTRSTAYTSSDNNYNWGYDPQHYFALSGMYSANPNDPALRIAELKNLVNEIHKRGMGVIFDVVYNHTARTYLFEDLEPNYYHFMNADGTARESFGGGRLGTTHAMSRRILVDSITYLTREFKVDGFRFDMMGDHDAAAIEQAFKAAKAINPNTIMIGEGWRTYQGDEGKKEIAADQDWMKATNTVGVFSDDIRNTLKSGFPNEGTAAFITGGAKNLEGLFKTIKAQPSNFEADAPGDVVQYIAAHDNLTLHDVIAKSINKDPKVAEEEIHKRIRLGNTMILTAQGTAFIHSGQEYGRTKQLLNPDYKTKVSDDKVPNKATLIDAVAQYPYFIHDSYDSSDAVNHFDWAKATDSIAHPISNQTKAYTQGLIALRRSTDAFTKATKAEVDRDVTLITQAGQDGIQQEDLIMGYQTVASNGDRYAVFVNADNKTRKVVLPQAYRYLLGAQVLADAEQVGVTAIAKPKGVQFTKEGLTIDGLTALVLKVSSKTANPSQQKSQTDNHQTKTPDGSKDLDKSLMTRPKRAKTNQKLPKTGEAPSKGLLAAGVALLLLAISLLMKRQKD
# What was measured:
# Assay in all cases: glycan array binding signal (z-score within array); higher = stronger binding
# Settings in all cases: glycan notation: IUPAC condensed, linker removed
# [1] = biological target: Gal(b1-3)GalNAc
# Summary of the method: (§1)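 Glycan array data came from 3228 arrays in the Consortium for Functional Glycomics database, and only arrays with an available protein sequence were kept. Glycan names were put into IUPAC-condensed notation, and columns mapping to the same glycan were averaged. The binding signal is a within-array Z-score, averaged across arrays of one protein sequence run at different concentrations or buffers and across linkers. A negative Z-score can be read as non-binding.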
# [2] = biological target: Gal(b1-3)GalNAc(a1-3)[Fuc(a1-2)]Gal(b1-4)Glc
# Summary of the method: as §1
# [3] = biological target: Gal(b1-3)GalNAc(a1-3)[Fuc(a1-2)]Gal(b1-4)GlcNAc
# Summary of the method: as §1
# [4] = biological target: Gal(b1-3)GalNAc(b1-3)Gal(a1-4)Gal(b1-4)Glc
# Summary of the method: as §1
# [5] = biological target: Gal(b1-3)GalNAc(b1-4)Gal(b1-4)Glc
# Summary of the method: as §1
# [6] = biological target: Gal(b1-3)GalNAc(b1-4)[Neu5Ac(a2-3)]Gal(b1-4)Glc
# Summary of the method: as §1
# [7] = biological target: Gal(b1-3)GlcNAc
# Summary of the method: as §1
# [8] = biological target: Gal(b1-3)GlcNAc(a1-6)Gal(b1-4)GlcNAc
# Summary of the method: as §1
# [9] = biological target: Gal(b1-3)GlcNAc(b1-2)Man(a1-3)[Gal(b1-3)GlcNAc(b1-2)Man(a1-6)]Man(b1-4)GlcNAc(b1-4)GlcNAc
# Summary of the method: as §1
# [10] = biological target: Gal(b1-3)GlcNAc(b1-2)Man(a1-3)[Gal(b1-3)GlcNAc(b1-2)Man(a1-6)]Man(b1-4)GlcNAc(b1-4)[Fuc(a1-6)]GlcNAc
# Summary of the method: as §1
# [11] = biological target: Gal(b1-3)GlcNAc(b1-2)[Gal(b1-3)GlcNAc(b1-6)]Man(a1-6)[Gal(b1-3)GlcNAc(b1-2)Man(a1-3)]Man(b1-4)GlcNAc(b1-4)GlcNAc
# Summary of the method: as §1
# [12] = biological target: Gal(b1-3)GlcNAc(b1-3)Gal(b1-3)GlcNAc
# Summary of the method: as §1
# [13] = biological target: Gal(b1-3)GlcNAc(b1-3)Gal(b1-4)Glc
# Summary of the method: as §1
# [14] = biological target: Gal(b1-3)GlcNAc(b1-3)Gal(b1-4)GlcNAc
# Summary of the method: as §1
# [15] = biological target: Gal(b1-3)GlcNAc(b1-3)Gal(b1-4)GlcNAc(b1-6)[Gal(b1-3)GlcNAc(b1-3)]Gal(b1-4)Glc
# Summary of the method: as §1
# [16] = biological target: Gal(b1-3)GlcNAc(b1-3)Gal(b1-4)[Fuc(a1-3)]GlcNAc(b1-6)[Gal(b1-3)GlcNAc(b1-3)]Gal(b1-4)Glc
# Summary of the method: as §1
# [17] = biological target: Gal(b1-3)GlcNAc(b1-3)GalNAc
# Summary of the method: as §1
# [18] = biological target: Gal(b1-3)GlcNAc(b1-6)Gal(b1-4)GlcNAc
# Summary of the method: as §1
# [19] = biological target: Gal(b1-3)[Fuc(a1-4)]GlcNAc
# Summary of the method: as §1
# [20] = biological target: Gal(b1-3)[Fuc(a1-4)]GlcNAc(b1-2)Man(a1-3)[Gal(b1-3)[Fuc(a1-4)]GlcNAc(b1-2)Man(a1-6)]Man(b1-4)GlcNAc(b1-4)GlcNAc
# Summary of the method: as §1
# [21] = biological target: Gal(b1-3)[Fuc(a1-4)]GlcNAc(b1-2)Man(a1-3)[Gal(b1-3)[Fuc(a1-4)]GlcNAc(b1-2)Man(a1-6)]Man(b1-4)GlcNAc(b1-4)[Fuc(a1-6)]GlcNAc
# Summary of the method: as §1
# [22] = biological target: Gal(b1-3)[Fuc(a1-4)]GlcNAc(b1-3)Gal(b1-3)[Fuc(a1-4)]GlcNAc
# Summary of the method: as §1
# [23] = biological target: Gal(b1-3)[Fuc(a1-4)]GlcNAc(b1-3)Gal(b1-4)GlcNAc
# Summary of the method: as §1
# [24] = biological target: Gal(b1-3)[Fuc(a1-4)]GlcNAc(b1-3)Gal(b1-4)[Fuc(a1-3)]GlcNAc
# Summary of the method: as §1
# [25] = biological target: Gal(b1-3)[GlcNAc(b1-6)]GalNAc
# Summary of the method: as §1
# [26] = biological target: Gal(b1-3)[Neu5Ac(a2-6)]GalNAc
# Summary of the method: as §1
# [27] = biological target: Gal(b1-3)[Neu5Ac(a2-6)]GlcNAc(b1-6)Gal(b1-4)Glc
# Summary of the method: as §1
# [28] = biological target: Gal(b1-3)[Neu5Ac(b2-6)]GalNAc
# Summary of the method: as §1
# [29] = biological target: Gal(b1-4)Gal
# Summary of the method: as §1
# [30] = biological target: Gal(b1-4)GalNAc(a1-3)[Fuc(a1-2)]Gal(b1-4)GlcNAc
# Summary of the method: as §1
# [31] = biological target: Gal(b1-4)GalNAc(b1-3)[Fuc(a1-2)]Gal(b1-4)GlcNAc
# Summary of the method: as §1
# [32] = biological target: Gal(b1-4)Glc
# Summary of the method: as §1
# [33] = biological target: Gal(b1-4)Glc6S
# Summary of the method: as §1
# [34] = biological target: Gal(b1-4)GlcNAc
# Summary of the method: as §1
# [35] = biological target: Gal(b1-4)GlcNAc(a1-6)Gal(b1-4)GlcNAc
# Summary of the method: as §1
# [36] = biological target: Gal(b1-4)GlcNAc(b1-2)Man(a1-3)Man(b1-4)GlcNAc(b1-4)GlcNAc
# Summary of the method: as §1
# [37] = biological target: Gal(b1-4)GlcNAc(b1-2)Man(a1-3)[Gal(b1-4)GlcNAc(b1-2)Man(a1-6)]Man(b1-4)GlcNAc(b1-4)GlcNAc
# Summary of the method: as §1
# [38] = biological target: Gal(b1-4)GlcNAc(b1-2)Man(a1-3)[Gal(b1-4)GlcNAc(b1-2)Man(a1-6)]Man(b1-4)GlcNAc(b1-4)[Fuc(a1-6)]GlcNAc
# Summary of the method: as §1
# [39] = biological target: Gal(b1-4)GlcNAc(b1-2)Man(a1-3)[Gal(b1-4)GlcNAc(b1-2)][GlcNAc(b1-4)]Man(b1-4)GlcNAc(b1-4)GlcNAc
# Summary of the method: as §1
# [40] = biological target: Gal(b1-4)GlcNAc(b1-2)Man(a1-3)[GlcNAc(b1-2)Man(a1-6)]Man(b1-4)GlcNAc(b1-4)GlcNAc
# Summary of the method: as §1
# [41] = biological target: Gal(b1-4)GlcNAc(b1-2)Man(a1-3)[Man(a1-6)]Man(b1-4)GlcNAc(b1-4)GlcNAc
# Summary of the method: as §1
# [42] = biological target: Gal(b1-4)GlcNAc(b1-2)Man(a1-6)Man(b1-4)GlcNAc(b1-4)GlcNAc
# Summary of the method: as §1
# [43] = biological target: Gal(b1-4)GlcNAc(b1-2)Man(a1-6)[GlcNAc(b1-2)Man(a1-3)]Man(b1-4)GlcNAc(b1-4)GlcNAc
# Summary of the method: as §1
# [44] = biological target: Gal(b1-4)GlcNAc(b1-2)Man(a1-6)[Man(a1-3)]Man(b1-4)GlcNAc(b1-4)GlcNAc
# Summary of the method: as §1
# [45] = biological target: Gal(b1-4)GlcNAc(b1-2)[Gal(b1-4)GlcNAc(b1-4)]Man(a1-3)[Gal(b1-4)GlcNAc(b1-2)Man(a1-6)]Man(b1-4)GlcNAc(b1-4)GlcNAc
# Summary of the method: as §1
binder,measurement,setting,value
B1,glycan array binding signal (z-score),[1],0.229
same,glycan array binding signal (z-score),[2],0.712
same,glycan array binding signal (z-score),[3],-1.08
same,glycan array binding signal (z-score),[4],-1.06
same,glycan array binding signal (z-score),[5],1.37
same,glycan array binding signal (z-score),[6],-0.953
same,glycan array binding signal (z-score),[7],-0.745
same,glycan array binding signal (z-score),[8],-1.04
same,glycan array binding signal (z-score),[9],0.125
same,glycan array binding signal (z-score),[10],0.536
same,glycan array binding signal (z-score),[11],-0.345
same,glycan array binding signal (z-score),[12],1.49
same,glycan array binding signal (z-score),[13],-1.58
same,glycan array binding signal (z-score),[14],2.25
same,glycan array binding signal (z-score),[15],0.184
same,glycan array binding signal (z-score),[16],-0.674
same,glycan array binding signal (z-score),[17],-0.015
same,glycan array binding signal (z-score),[18],1.28
same,glycan array binding signal (z-score),[19],0.027
same,glycan array binding signal (z-score),[20],6.24
same,glycan array binding signal (z-score),[21],2.86
same,glycan array binding signal (z-score),[22],0.684
same,glycan array binding signal (z-score),[23],-0.836
same,glycan array binding signal (z-score),[24],-0.858
same,glycan array binding signal (z-score),[25],0.132
same,glycan array binding signal (z-score),[26],0.382
same,glycan array binding signal (z-score),[27],-0.813
same,glycan array binding signal (z-score),[28],-0.582
same,glycan array binding signal (z-score),[29],-1.71
same,glycan array binding signal (z-score),[30],-0.33
same,glycan array binding signal (z-score),[31],1.28
same,glycan array binding signal (z-score),[32],0.234
same,glycan array binding signal (z-score),[33],-0.375
same,glycan array binding signal (z-score),[34],0.731
same,glycan array binding signal (z-score),[35],-0.44
same,glycan array binding signal (z-score),[36],-0.406
same,glycan array binding signal (z-score),[37],0.669
same,glycan array binding signal (z-score),[38],0.304
same,glycan array binding signal (z-score),[39],-1.23
same,glycan array binding signal (z-score),[40],-0.838
same,glycan array binding signal (z-score),[41],-0.985
same,glycan array binding signal (z-score),[42],0.381
same,glycan array binding signal (z-score),[43],-0.716
same,glycan array binding signal (z-score),[44],0.719
same,glycan array binding signal (z-score),[45],-0.477

# Not a retest: entries from further up.
binder,measurement,setting,value
B1,glycan array binding signal (z-score),[37],0.669
same,glycan array binding signal (z-score),[38],0.304
same,glycan array binding signal (z-score),[39],-1.23
